These are yes or no findings as the source states them, for the method shown. Binding seen in cells or lysates may run through a third protein. Here binding means that the protein was enriched with, or labelled near, the bait; the list need not be complete.
B1: catalytic subunit of PPP6 (PPP6C) (enzyme, UniProt O00743 1-305)
chain: MAPLDLDKYVEIARLCKYLPENDLKRLCDYVCDLLLEESNVQPVSTPVTVCGDIHGQFYDLCELFRTGGQVPDTNYIFMGDFVDRGYYSLETFTYLLALKAKWPDRITLLRGNHESRQITQVYGFYDECQTKYGNANAWRYCTKVFDMLTVAALIDEQILCVHGGLSPDIKTLDQIRTIERNQEIPHKGAFCDLVWSDPEDVDTWAISPRGAGWLFGAKVTNEFVHINNLKLICRAHQLVHEGYKFMFDEKLVTVWSAPNYCYRCGNIASIMVFKDVNTREPKLFRAVPDSERVIPPRTTTPYFL

Sequences of proteins named here, by UniProt entry; tags and fusion partners are left off.
UniProt Q96KQ7: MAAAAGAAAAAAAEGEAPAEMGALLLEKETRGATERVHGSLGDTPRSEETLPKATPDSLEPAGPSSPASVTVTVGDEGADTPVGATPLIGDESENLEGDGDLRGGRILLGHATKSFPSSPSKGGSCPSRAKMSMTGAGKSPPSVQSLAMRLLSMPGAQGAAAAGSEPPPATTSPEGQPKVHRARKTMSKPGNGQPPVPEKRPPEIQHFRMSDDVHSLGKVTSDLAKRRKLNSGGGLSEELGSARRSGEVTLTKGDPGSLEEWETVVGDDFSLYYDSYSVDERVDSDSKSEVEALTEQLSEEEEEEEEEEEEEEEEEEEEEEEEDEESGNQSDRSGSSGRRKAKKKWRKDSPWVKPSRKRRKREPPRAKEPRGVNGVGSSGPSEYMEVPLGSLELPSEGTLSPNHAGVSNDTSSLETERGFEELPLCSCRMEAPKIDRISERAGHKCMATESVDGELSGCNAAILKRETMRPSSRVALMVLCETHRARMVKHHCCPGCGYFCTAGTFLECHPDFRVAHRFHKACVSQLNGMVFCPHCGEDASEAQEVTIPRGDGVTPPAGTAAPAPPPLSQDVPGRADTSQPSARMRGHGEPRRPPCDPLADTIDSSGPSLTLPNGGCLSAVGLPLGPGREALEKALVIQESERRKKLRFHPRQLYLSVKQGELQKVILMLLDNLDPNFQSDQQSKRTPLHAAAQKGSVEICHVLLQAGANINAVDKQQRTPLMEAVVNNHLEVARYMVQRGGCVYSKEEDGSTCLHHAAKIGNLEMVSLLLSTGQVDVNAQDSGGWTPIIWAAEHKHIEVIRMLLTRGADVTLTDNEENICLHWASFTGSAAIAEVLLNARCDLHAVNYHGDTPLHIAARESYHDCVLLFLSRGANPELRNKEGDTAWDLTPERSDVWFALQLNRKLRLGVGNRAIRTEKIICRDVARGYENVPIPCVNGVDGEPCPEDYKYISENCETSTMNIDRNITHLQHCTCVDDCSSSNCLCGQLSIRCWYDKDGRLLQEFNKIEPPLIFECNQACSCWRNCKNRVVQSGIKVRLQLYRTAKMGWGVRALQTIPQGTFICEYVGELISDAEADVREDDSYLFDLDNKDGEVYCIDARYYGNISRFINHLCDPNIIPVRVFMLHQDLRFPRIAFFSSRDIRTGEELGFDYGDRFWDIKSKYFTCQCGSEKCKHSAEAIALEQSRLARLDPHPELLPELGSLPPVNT
UniProt P62714: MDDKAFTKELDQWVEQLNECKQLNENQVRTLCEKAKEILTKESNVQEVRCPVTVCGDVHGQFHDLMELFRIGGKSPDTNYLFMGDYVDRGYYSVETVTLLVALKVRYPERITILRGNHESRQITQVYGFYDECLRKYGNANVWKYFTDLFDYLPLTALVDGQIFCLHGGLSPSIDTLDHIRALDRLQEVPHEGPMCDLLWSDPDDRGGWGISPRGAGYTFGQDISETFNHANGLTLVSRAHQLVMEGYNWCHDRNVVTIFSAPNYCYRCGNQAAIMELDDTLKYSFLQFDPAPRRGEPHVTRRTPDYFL
UniProt P63151: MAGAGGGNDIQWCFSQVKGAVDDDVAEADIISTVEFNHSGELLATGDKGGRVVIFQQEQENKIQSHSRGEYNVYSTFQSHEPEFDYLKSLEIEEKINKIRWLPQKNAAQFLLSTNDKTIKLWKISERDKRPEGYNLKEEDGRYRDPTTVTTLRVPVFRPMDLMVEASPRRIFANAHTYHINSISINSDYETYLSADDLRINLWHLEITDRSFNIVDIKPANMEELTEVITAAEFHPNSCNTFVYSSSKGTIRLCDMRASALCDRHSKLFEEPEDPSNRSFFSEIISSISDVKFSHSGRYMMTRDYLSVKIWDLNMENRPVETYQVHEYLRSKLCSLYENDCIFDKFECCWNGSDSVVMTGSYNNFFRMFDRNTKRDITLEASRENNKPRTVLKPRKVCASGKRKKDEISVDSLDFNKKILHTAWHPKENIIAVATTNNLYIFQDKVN
UniProt P36873: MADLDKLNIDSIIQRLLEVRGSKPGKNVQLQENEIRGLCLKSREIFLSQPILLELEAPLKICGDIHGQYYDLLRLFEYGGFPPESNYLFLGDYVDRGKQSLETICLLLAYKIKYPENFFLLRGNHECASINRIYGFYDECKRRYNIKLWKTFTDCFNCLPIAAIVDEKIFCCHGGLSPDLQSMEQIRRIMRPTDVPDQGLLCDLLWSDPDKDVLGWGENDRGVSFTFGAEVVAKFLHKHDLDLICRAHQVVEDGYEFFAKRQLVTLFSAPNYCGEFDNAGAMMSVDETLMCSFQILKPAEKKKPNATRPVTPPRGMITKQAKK

What follows are molecules tested against Flag‐BirA‐G9a (human G9a fused to the biotin ligase BirA) (human) (UniProt Q96KQ7) (assay: proximity labelling; Flag‐BirA‐hG9a in HEK293T cells with or without biotin (100 µM, 16 h) and 18 h nocodazole; lysis in IP buffer (25 mM Tris‐HCl pH 7.4, 150 mM NaCl, 5% glycerol, 1 mM EDTA, 1% NP‐40); streptavidin resin overnight at 4 °C, washed with 500 mM NaCl IP buffer; whole gel lane analysed by mass spectrometry).

binding, binds:
beta‐isoform of the catalytic subunit of PPP2 (PPP2CB) (from UniProt P62714 1-309) (enzyme)
B55alpha regulatory subunit of PPP2 (PPP2R2A) (from UniProt P63151 1-447)
alpha isoform of the catalytic subunit of PPP3 (PPP3CA) (from UniProt Q08209 1-521) (enzyme)
gamma isoform of the catalytic subunit of PPP1 (PPP1CC) (from UniProt P36873 1-323) (enzyme)
B1

Source: paper PMC10602519
